These are yes or no findings as the source states them, for the method shown.
Target: T1, M. tuberculosis GroEL1 (full length) (M. tuberculosis), P9WPE9
T1 chain: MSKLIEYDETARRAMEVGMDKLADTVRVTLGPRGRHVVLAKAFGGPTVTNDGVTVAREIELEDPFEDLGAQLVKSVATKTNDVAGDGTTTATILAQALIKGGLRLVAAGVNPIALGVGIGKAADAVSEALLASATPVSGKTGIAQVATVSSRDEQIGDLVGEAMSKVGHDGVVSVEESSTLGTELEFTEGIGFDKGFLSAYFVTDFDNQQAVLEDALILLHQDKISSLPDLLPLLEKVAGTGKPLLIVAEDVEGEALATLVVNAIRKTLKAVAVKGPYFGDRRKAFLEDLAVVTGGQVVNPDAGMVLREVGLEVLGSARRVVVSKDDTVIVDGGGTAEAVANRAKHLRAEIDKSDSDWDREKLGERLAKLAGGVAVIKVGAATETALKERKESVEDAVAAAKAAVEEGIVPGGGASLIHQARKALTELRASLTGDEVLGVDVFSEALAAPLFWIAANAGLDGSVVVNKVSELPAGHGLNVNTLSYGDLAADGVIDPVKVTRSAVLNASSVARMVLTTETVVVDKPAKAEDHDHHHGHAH
Test: SAXS
Details: remark: other sources report otherwise

B1: M. tuberculosis GroEL1 (full length), P9WPE9 1-539 (protein)
chain: T1 chain
With B1 the binding was “no binding (tested: 5 mg/ml)”.

— article doi:10.1101/766162
